Results are given in words; binding and its absence hold for the method and conditions named.
Target: T1, human phosphoglycerate kinase, isoform 1 (hPGK1), wild-type (human), P00558
T1 chain: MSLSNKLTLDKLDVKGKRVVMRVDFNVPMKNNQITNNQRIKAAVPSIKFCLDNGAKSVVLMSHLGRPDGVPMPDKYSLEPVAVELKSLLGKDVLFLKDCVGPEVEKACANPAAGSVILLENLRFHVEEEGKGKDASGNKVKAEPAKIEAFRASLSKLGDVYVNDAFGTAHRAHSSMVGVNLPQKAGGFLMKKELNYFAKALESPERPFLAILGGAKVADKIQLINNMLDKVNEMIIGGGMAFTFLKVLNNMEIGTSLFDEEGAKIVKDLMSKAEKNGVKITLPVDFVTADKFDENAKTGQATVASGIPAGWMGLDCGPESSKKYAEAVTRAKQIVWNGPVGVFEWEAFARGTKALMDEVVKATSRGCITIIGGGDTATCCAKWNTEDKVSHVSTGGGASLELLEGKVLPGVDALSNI
Experiment: SEC; Superdex 200 16/60, 20 mM HEPES-NaOH, 200 mM NaCl, pH 7.4, 1.5 mL/min, 25 °C; 4 mg of protein purified from IMAC loaded; elution volume compared with ovalbumin (44 kDa); both purified
Conditions: remark: other sources report otherwise

B1: human phosphoglycerate kinase, isoform 1 (hPGK1), wild-type, P00558-1 1-417 (enzyme)
chain: T1 chain
binding: no binding (tested: 4 mg of protein loaded)

From article PMC9561527
